Measured values taken from patent US20240059757A1.
No constants are given. Whether binding was seen depends on the method and setting.

Molecular target: SARS-CoV RBD (Sino Biological) (SARS-CoV) (UniProt P59594)
Assay: ELISA, plate coated with SARS-CoV RBD at 1 µg/ml, OD 405 nm

B1: S2R7 (antibody, V domains shown)
VH: QVQLQESGPGLVRPSETLSLTCTVSSASIPTGTHYWGWIRQPPGQGLEWIGSISNIGYSFYNPSLKSRVSISIDTSKKQFSLKVRSVTAADTAVYYCVRPTNEYGGFWFDRWGQGTLVTVSS
VL: SYVLTQPPSVSVAPGKTARFTCGGDNIGSKRVHWYQQKPGQAPVLVIYYDADRPSGIPERFSGSKSGSTATLTISRVEAGDEADYYCQVWESTRDHVIFGGGTKLTVL
In the case of B1, the binding is reported as “no binding (tested: about 6 µg/ml)”.
